In patent US20230348376A1 (TEIJIN PHARMA LIMITED, priority 2020, published 2023):

System: rat oligodendrocyte progenitor cells
Test: Promotive activity of rat oligodendrocyte progenitor cell differentiation-2 (immunostaining of MBP)
Type: cell-based
Conditions: vitamin D derivative 2 μM, T3 30 nM
Method: The promotive activity of oligodendrocyte progenitor cell (OPC) differentiation of the vitamin D derivatives was evaluated by immunostaining of MBP.
Subsequently, oligodendrocyte progenitor cell separation medium was added to the flask, and the mixture was similarly shaken for about 22 hours (37° C., 200 rpm), and the supernatant was collected to prepare oligodendrocyte progenitor cells.

With `C=C1/C(=C\C=C2/CCC[C@]3(C)[C@@H]([C@H](C)CN4CCN(C)C[C@@H]4C)CC[C@@H]23)C[C@@H](O)C[C@@H]1O` [Compound F011, (1R,3S,Z)-5-(2-((1R,3aS,7aR,E)-1-((S)-1-((S)-2,4-dimethylpiperazin-1-yl)propan-2-yl)-7a-methyloctahydro-4H-inden-4-ylidene)ethylidene)-4-methylenecyclohexane-1,3-diol] the “Significant difference (t-test vs DMSO group)” value (from here on “Significant difference”) (Test 5) was “*** (<0.001)”.
For `C[C@H](CN1CCOC[C@@H]1C)[C@H]1CC[C@H]2/C(=C/C=C3C[C@@H](O)C[C@H](O)C3)CCC[C@]12C` [Compound G004, (1R,3R)-5-(2-((1R,3aS,7aR,E)-7a-methyl-1-((S)-1-((S)-3-methylmorpholino)propan-2-yl)octahydro-4H-inden-4-ylidene)ethylidene)cyclohexane-1,3-diol], the “Significant difference” value (Test 3) was “**** (<0.0001)”.
For `C[C@H](CN1CCN(C)C[C@H]1C)[C@H]1CC[C@H]2/C(=C/C=C3C[C@@H](O)C[C@H](O)C3)CCC[C@]12C` [Compound G012, (1R,3R)-5-(2-((1R,3aS,7aR,E)-1-((S)-1-((R)-2,4-dimethylpiperazin-1-yl)propan-2-yl)-7a-methyloctahydro-4H-inden-4-ylidene)ethylidene)cyclohexane-1,3-diol], the “Significant difference” value (Test 5) was “* (<0.05)”.
`COC(C)(C)[C@@H]1CCCN1C[C@@H](C)[C@H]1CC[C@H]2/C(=C/C=C3C[C@@H](O)C[C@H](O)C3)CCC[C@]12C` [Compound G016, (1R,3R)-5-(2-((1R,3aS,7aR,E)-1-((S)-1-((S)-2-(2-methoxypropan-2-yl)pyrrolidin-1-yl)propan-2-yl)-7a-methyloctahydro-4H-inden-4-ylidene)ethylidene)cyclohexane-1,3-diol] was tested, and the “Significant difference” value (Test 7) was “*** (<0.001)”.
With `C[C@H](CN1CCCC[C@H]1C)[C@H]1CC[C@H]2/C(=C/C=C3C[C@@H](O)C[C@H](O)C3)CCC[C@]12C` [Compound G002, (1R,3R)-5-(2-((1R,3aS,7aR,E)-7a-methyl-1-((S)-1-((R)-2-methylpiperidin-1-yl)propan-2-yl)octahydro-4H-inden-4-ylidene)ethylidene)cyclohexane-1,3-diol] the “Significant difference” value (Test 3) was “**** (<0.0001)”.
In the case of `C[C@H](CCN1CCOCC1)[C@H]1CC[C@H]2/C(=C/C=C3C[C@@H](O)C[C@H](O)C3)CCC[C@]12C` [Compound D023, (1R,3R)-5-(2-((1R,3aS,7aR,E)-7a-methyl-1-((R)-4-morpholinobutan-2-yl)octahydro-4H-inden-4-ylidene)ethylidene)cyclohexane-1,3-diol], the “Significant difference” value (Test 2) was “**** (<0.0001)”.
With `C[C@H](CN1CCN(C)C[C@@H]1C)[C@H]1CC[C@H]2/C(=C/C=C3C[C@@H](O)C[C@H](O)C3)CCC[C@]12C` [Compound G011, (1R,3R)-5-(2-((1R,3aS,7aR,E)-1-((S)-1-((S)-2,4-dimethylpiperazin-1-yl)propan-2-yl)-7a-methyloctahydro-4H-inden-4-ylidene)ethylidene)cyclohexane-1,3-diol] the “Significant difference” value (Test 5) was “** (<0.01)”.
`C=C1[C@H](O)CC(=C/C=C2\CCC[C@]3(C)[C@@H]([C@H](C)CN4CCCC[C@@H]4C)CC[C@@H]23)C[C@H]1O` [Compound H001, (1R,3R)-5-(2-((1R,3aS,7aR,E)-7a-methyl-1-((S)-1-((S)-2-methylpiperidin-1-yl)propan-2-yl)octahydro-4H-inden-4-ylidene)ethylidene)-2-methylenecyclohexane-1,3-diol] was tested, and the “Significant difference” value (Test 7) was “**** (<0.0001)”.
With `C[C@H](CN1CCOC2(CC2)C1)[C@H]1CC[C@H]2/C(=C/C=C3C[C@@H](O)C[C@H](O)C3)CCC[C@]12C` [Compound D019, (1R,3R)-5-(2-((1R,3aS,7aR,E)-1-((S)-1-(4-oxa-7-azaspiro[2.5]octan-7-yl)propan-2-yl)-7a-methyloctahydro-4H-inden-4-ylidene)ethylidene)cyclohexane-1,3-diol] the “Significant difference” value (Test 2) was “**** (<0.0001)”.
With `C=C1[C@H](O)CC(=C/C=C2\CCC[C@]3(C)[C@@H]([C@H](C)CN4CCCC(O)(C(F)F)C4)CC[C@@H]23)C[C@H]1O` (single isomer, unassigned) [Compound C036b] the “Significant difference” value (Test 2) was “*** (<0.001)”.
`C=C1/C(=C\C=C2/CCC[C@]3(C)[C@@H]([C@H](C)CN4CCCC[C@@H]4C)CC[C@@H]23)C[C@@H](O)C[C@@H]1O` [Compound F001, (1R,3S,Z)-5-(2-((1R,3aS,7aR,E)-7a-methyl-1-((S)-1-((S)-2-methylpiperidin-1-yl)propan-2-yl)octahydro-4H-inden-4-ylidene)ethylidene)-4-methylenecyclohexane-1,3-diol] was tested, and the “Significant difference” value (Test 7) was “** (<0.01)”.
With `COC(C)(C)[C@H]1CCCN1C[C@@H](C)[C@H]1CC[C@H]2/C(=C/C=C3C[C@@H](O)C[C@H](O)C3)CCC[C@]12C` [Compound G015, (1R,3R)-5-(2-((1R,3aS,7aR,E)-1-((S)-1-((R)-2-(2-methoxypropan-2-yl)pyrrolidin-1-yl)propan-2-yl)-7a-methyloctahydro-4H-inden-4-ylidene)ethylidene)cyclohexane-1,3-diol] the “Significant difference” value (Test 6) was “**** (<0.0001)”.
With `C=C1[C@H](O)CC(=C/C=C2\CCC[C@]3(C)[C@@H]([C@H](C)CN4CCCC[C@H]4C)CC[C@@H]23)C[C@H]1O` [Compound H002, (1R,3R)-5-(2-((1R,3aS,7aR,E)-7a-methyl-1-((S)-1-((R)-2-methylpiperidin-1-yl)propan-2-yl)octahydro-4H-inden-4-ylidene)ethylidene)-2-methylenecyclohexane-1,3-diol] the “Significant difference” value (Test 9) was “**** (<0.0001)”.
With `C=C1/C(=C\C=C2/CCC[C@]3(C)[C@@H]([C@H](C)CN4CCOC[C@H]4C)CC[C@@H]23)C[C@@H](O)C[C@@H]1O` [Compound F005, (1R,3S,Z)-5-(2-((1R,3aS,7aR,E)-7a-methyl-1-((S)-1-((R)-3-methylmorpholino)propan-2-yl)octahydro-4H-inden-4-ylidene)ethylidene)-4-methylenecyclohexane-1,3-diol] the “Significant difference” value (Test 3) was “**** (<0.0001)”.
With `C=C1/C(=C\C=C2/CCC[C@]3(C)[C@@H]([C@H](C)CN4CCOCC4(C)C)CC[C@@H]23)C[C@@H](O)C[C@H]1O` [Compound I006, (1R,3R,Z)-5-(2-((1R,3aS,7aR,E)-1-((S)-1-(3,3-dimethylmorpholino)propan-2-yl)-7a-methyloctahydro-4H-inden-4-ylidene)ethylidene)-4-methylenecyclohexane-1,3-diol] the “Significant difference” value (Test 4) was “**** (<0.0001)”.
In the case of `C=C1[C@H](O)CC(=C/C=C2\CCC[C@]3(C)[C@@H]([C@H](C)CN4CCC[C@H]4C(C)(C)OC)CC[C@@H]23)C[C@H]1O` [Compound H016, (1R,3R)-5-(2-((1R,3aS,7aR,E)-1-((S)-1-((S)-2-(2-methoxypropan-2-yl)pyrrolidin-1-yl)propan-2-yl)-7a-methyloctahydro-4H-inden-4-ylidene)ethylidene)-2-methylenecyclohexane-1,3-diol], the “Significant difference” value (Test 8) was “** (<0.01)”.
In the case of `C=C1/C(=C\C=C2/CCC[C@]3(C)[C@@H]([C@H](C)CN4CC[C@H](CC(F)F)C4)CC[C@@H]23)C[C@@H](O)C[C@@H]1O` [Compound B036], the “Significant difference” value (Test 1) was “**** (<0.0001)”.
